The star is where a group is joined. Palmitoyl = CCCCCCCCCCCCCCCC(=O)*
Test: general procedure: Fmoc solid-phase peptide synthesis; 4-methylbenzhydrylamine (MBHA) resin (1.00 g, 0.65 mmol/g); DIPCDI/HOAt; re-coupling with HATU/DIEA or PyBOP/HOAt/DIEA
Conditions: whole synthesis, scale of the general procedure 1.00 g resin

Substance	purity (crude or final not stated) (220 nm) [%]	purity (crude or final not stated) (RP-HPLC, C18, 220 nm)
Palmitoyl-RGDGPQGPQ-NH2	97.82	greater than 97%
Palmitoyl-WRFQWQFEQ-NH2	95.19	greater than 95%
Palmitoyl-RGDGANPNAAG-NH2	92.80	greater than 90%

— patent US9932368B2 (INFINITEC ACTIVOS S.L, priority 2013, dated 2018)
